These are yes or no findings as the source states them, for the method shown. Some entries that bind do so weakly or less than the wild type.
Key:
[1] = biological target: mouse TfR1, untagged, full length, transiently expressed on HEK293 (Exp293F) cells (mouse) (UniProt Q62351); assay: flow cytometry on cells
[2] = biological target: rat TfR1, untagged, full length, transiently expressed on HEK293 (Exp293F) cells (rat) (UniProt Q99376); assay: flow cytometry on cells

The chains behind the UniProt entries cited, without tags or fusion partners.
UniProt Q99376: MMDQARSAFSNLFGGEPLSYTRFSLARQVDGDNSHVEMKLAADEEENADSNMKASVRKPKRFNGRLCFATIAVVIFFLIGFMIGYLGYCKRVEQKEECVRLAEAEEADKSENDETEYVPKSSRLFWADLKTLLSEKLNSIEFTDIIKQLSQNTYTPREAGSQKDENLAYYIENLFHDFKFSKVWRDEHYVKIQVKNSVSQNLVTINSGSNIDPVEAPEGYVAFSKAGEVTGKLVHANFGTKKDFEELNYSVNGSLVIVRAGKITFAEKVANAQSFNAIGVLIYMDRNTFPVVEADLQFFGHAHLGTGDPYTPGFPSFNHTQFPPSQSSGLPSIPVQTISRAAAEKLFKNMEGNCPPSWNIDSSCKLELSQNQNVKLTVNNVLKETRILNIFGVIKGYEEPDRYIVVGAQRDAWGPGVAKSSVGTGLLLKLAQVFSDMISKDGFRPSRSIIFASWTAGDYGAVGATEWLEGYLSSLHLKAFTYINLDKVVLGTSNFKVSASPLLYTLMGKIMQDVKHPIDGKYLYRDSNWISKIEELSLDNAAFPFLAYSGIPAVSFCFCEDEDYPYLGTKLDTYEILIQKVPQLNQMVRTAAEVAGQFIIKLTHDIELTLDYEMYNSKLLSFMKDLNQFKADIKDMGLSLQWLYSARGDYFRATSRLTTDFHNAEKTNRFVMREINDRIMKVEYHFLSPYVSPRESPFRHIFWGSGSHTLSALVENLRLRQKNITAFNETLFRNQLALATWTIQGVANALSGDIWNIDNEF

binding [1]: binds
binding [2]: binds
Substance: mouse Tf-Alexa Fluor 647 (from UniProt Q921I1 20-697) (ligand)
